This passage reports binding results from PMC10482377, “Septum site placement in Mycobacteria – identification and characterisation of mycobacterial homologues of Escherichia coli MinD” (Microbiology, 2023).

Protein sequences, listed by entry. Tags and fused reporters are not part of them. Lines headed by an entry give the natural chain unless they say otherwise; changes in a name come on top.
UniProt A0QYQ4: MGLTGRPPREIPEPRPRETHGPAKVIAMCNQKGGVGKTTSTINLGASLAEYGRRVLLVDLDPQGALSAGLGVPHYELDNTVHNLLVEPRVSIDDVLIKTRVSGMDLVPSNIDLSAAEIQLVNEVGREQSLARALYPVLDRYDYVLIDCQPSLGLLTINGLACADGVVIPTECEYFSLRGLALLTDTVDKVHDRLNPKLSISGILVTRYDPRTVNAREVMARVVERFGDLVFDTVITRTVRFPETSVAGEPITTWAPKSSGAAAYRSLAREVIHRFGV
UniProt A0R7J3: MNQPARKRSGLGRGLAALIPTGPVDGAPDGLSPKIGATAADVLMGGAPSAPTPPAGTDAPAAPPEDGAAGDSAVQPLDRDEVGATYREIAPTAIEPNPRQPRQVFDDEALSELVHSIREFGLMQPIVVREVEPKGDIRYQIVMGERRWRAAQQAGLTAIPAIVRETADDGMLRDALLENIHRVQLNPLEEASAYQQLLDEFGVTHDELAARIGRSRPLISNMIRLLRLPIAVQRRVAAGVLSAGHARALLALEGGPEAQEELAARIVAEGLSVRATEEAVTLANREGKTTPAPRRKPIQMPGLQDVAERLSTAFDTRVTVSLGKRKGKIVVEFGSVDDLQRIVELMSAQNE

In this assay the target is MSMEG_3743 (MPFC bait fusion) (M. smegmatis) (UniProt A0QYQ4). The assay can be described thus: split reporter; Mycobacterial Protein Fragment Complementation (MPFC); bait in pUAB400 and prey in pUAB300 co-transformed in M. smegmatis mc2155; growth on plates with 20 µg/ml trimethoprim.

Results are given in words; binding and its absence hold for the method and conditions named. Binding seen in cells or lysates may run through a third protein. A result given as binding can be weak or reduced; the word gives no strength.

Consider “Ms ParB (MSMEG_6938) (MPFC prey fusion) (from UniProt A0R7J3)”, for which the binding entry is listed as “binds”.
